No constants are given. Whether binding was seen depends on the method and setting. Binding seen in cells or lysates may run through a third protein. Binding calls can cover weak binding; strength is not graded here. Where a sequence is shown, tags or fusion partners need not be part of it.

Amino acid sequences for entries named in this document (tags omitted). A change or cut given only in a name is not applied to a line headed by its entry.
UniProt C8VTS4: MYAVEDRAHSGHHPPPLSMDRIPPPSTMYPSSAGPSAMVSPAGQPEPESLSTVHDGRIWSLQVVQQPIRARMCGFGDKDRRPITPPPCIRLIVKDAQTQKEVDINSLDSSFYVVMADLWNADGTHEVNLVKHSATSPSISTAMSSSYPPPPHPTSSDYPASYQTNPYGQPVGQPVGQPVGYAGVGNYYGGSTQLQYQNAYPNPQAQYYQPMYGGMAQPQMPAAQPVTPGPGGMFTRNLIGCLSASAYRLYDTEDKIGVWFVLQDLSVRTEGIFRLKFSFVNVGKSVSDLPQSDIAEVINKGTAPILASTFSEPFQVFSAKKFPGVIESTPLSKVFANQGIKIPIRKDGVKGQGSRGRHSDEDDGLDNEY

Results on two molecules are retold here after PMC12614781, “The VelB IDD promotes selective heterodimer formation of velvet proteins for fungal development” (Life Science Alliance, 2025).

For assay [1], the target named is T1, VeA-HA (A. nidulans VeA with HA tag) (A. nidulans) (UniProt C8VTV4).
T1 sequence: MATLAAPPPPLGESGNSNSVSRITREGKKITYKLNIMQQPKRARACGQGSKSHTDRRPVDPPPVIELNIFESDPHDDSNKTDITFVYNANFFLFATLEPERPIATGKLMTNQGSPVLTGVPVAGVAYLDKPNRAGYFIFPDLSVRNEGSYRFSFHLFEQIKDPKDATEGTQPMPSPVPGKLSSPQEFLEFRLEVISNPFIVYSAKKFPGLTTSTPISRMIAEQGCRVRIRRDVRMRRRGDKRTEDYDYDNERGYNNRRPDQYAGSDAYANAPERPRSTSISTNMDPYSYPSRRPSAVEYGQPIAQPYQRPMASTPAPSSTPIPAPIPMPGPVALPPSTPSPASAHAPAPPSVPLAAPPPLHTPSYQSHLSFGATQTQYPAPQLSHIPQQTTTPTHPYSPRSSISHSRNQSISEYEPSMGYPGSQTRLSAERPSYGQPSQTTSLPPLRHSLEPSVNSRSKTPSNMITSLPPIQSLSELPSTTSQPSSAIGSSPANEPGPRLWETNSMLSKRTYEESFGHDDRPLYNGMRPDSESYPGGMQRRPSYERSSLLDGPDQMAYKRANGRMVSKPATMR
Put plainly: co-IP; GFP and HA (anti-HA agarose) pull-downs from vegetative mycelium of A. nidulans strains expressing veA:HA or vosA:HA and velB:gfp or velB^ΔIDD:gfp under native promoters, intact veA; Western with GFP and HA antibodies.

Assay [2] has as its target VelB^ΔIDD-GFP (A. nidulans VelB lacking the intrinsically disordered domain, fused to GFP) (A. nidulans) (UniProt C8VTS4). The assay is described as above.

Turning to “VelB^ΔIDD-GFP (A. nidulans VelB lacking the intrinsically disordered domain, fused to GFP) (from UniProt C8VTS4)”, the binding entry in assay [1] is “binds”.

B1: VeA-HA (A. nidulans VeA with HA tag) (protein, UniProt C8VTV4 1-573)
chain: MATLAAPPPPLGESGNSNSVSRITREGKKITYKLNIMQQPKRARACGQGSKSHTDRRPVDPPPVIELNIFESDPHDDSNKTDITFVYNANFFLFATLEPERPIATGKLMTNQGSPVLTGVPVAGVAYLDKPNRAGYFIFPDLSVRNEGSYRFSFHLFEQIKDPKDATEGTQPMPSPVPGKLSSPQEFLEFRLEVISNPFIVYSAKKFPGLTTSTPISRMIAEQGCRVRIRRDVRMRRRGDKRTEDYDYDNERGYNNRRPDQYAGSDAYANAPERPRSTSISTNMDPYSYPSRRPSAVEYGQPIAQPYQRPMASTPAPSSTPIPAPIPMPGPVALPPSTPSPASAHAPAPPSVPLAAPPPLHTPSYQSHLSFGATQTQYPAPQLSHIPQQTTTPTHPYSPRSSISHSRNQSISEYEPSMGYPGSQTRLSAERPSYGQPSQTTSLPPLRHSLEPSVNSRSKTPSNMITSLPPIQSLSELPSTTSQPSSAIGSSPANEPGPRLWETNSMLSKRTYEESFGHDDRPLYNGMRPDSESYPGGMQRRPSYERSSLLDGPDQMAYKRANGRMVSKPATMR
For B1, the binding entry in assay [2] was “binds”.
